Test results as given in patent publication US20160046703A1 (ORGENTEC DIAGNOSTIKA, published 2016).
Substitutions are numbered along the chain they refer to. No constants are given. Whether binding was seen depends on the method and setting. Some binding calls cover weakened binding; strength is not graded here.

Protein sequences, listed by entry. Tags and fused reporters are not part of them. Residues count along the entry.
UniProt P02749, residues 20-345: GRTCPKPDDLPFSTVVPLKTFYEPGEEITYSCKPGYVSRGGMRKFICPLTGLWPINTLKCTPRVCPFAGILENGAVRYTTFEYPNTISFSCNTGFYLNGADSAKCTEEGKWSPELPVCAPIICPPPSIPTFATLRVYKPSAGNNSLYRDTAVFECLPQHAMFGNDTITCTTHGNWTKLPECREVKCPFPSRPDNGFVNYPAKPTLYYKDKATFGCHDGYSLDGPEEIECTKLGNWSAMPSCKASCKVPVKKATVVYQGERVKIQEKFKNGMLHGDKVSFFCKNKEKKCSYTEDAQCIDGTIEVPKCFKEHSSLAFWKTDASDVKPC

B1: scFv-CAD β2-glycoprotein-binding module (artificial protein sequence scFv-RP-CAD-P) (scFv)
scFv: LVPRGSDVLMTQTPLSLPVSLGDQASISCRSSQSIVHSNGNTYLEWYLQKPGQSPKLLIYKVSNRFSGVPDRFSGSGSGTDFTLKISRVEAEDLGVYYCFQGSHVPYTFGGGTKLEIKRTGSGSGGGGSGGGGSGGGGSSGGGGSGGGGSGGGGSGSGEVQLQQSGPELVKPGASVKISCKASGYTFTDYYMHWVRQRPGQGLEWIGEIYPGSGNTSYNEKFRGKATLTADKSSSTAYMQLSSLTSEDSAVYFCARGTLDYTMDYWGQGTSVTVSS
notes: Expressed in E. coli from pQE-80L as a 30 kDa protein; also called CAD-scFv; scFV-CAD reaction module; not shown: RGS-6xHis tag from expression vector pQE-80L (detected with anti-RGS-6xHis antib)
B2: single-chain CAD-IgG-CH3-Knob02 modubody (designed binder)
chain: LVPRGSDVLMTQTPLSLPVSLGDQASISCRSSQSIVHSNGNTYLEWYLQKPGQSPKLLIYKVSNRFSGVPDRFSGSGSGTDFTLKISRVEAEDLGVYYCFQGSHVPYTFGGGTKLEIKRTGSGSGGGGSGGGGSGGGGSSGGGGSGGGGSGGGGSGSGEVQLQQSGPELVKPGASVKISCKASGYTFTDYYMHWVRQRPGQGLEWIGEIYPGSGNTSYNEKFRGKATLTADKSSSTAYMQLSSLTSEDSAVYFCARGTLDYTMDYWGQGTSVTVSSGSGGGGSGGGGSGGGGSSGGGGSGGGGSGGGGSGSGEPQVYTLPPSREEMTKNQVSLYCLVKGFYPSDIAVEWESNGQPENNYKTYPPVLDSDGSFYLYSKLTVDKSRWQQGNVFSCSVMHEALHNHYTQKSLSL
notes: Domain order is VL-linker-VH-linker-IgG-CH3-Knob02, 44 kDa, made in E. coli; also called CAD-IgG-CH3-Knob32 (as misprinted once); not shown: RGS-6xHis tag from vector pQE-80L
B3: single-chain CAD-IgG-CH3 modubody (designed binder, not shown: small tags and cut ends)
chain: B2 chain with Y334T, Y362T, Y373F
B4: single-chain multifunctional CAD-IgM-IgA-IgG modubody (designed binder, not shown: small tags and cut ends)
chain: LVPRGSDVLMTQTPLSLPVSLGDQASISCRSSQSIVHSNGNTYLEWYLQKPGQSPKLLIYKVSNRFSGVPDRFSGSGSGTDFTLKISRVEAEDLGVYYCFQGSHVPYTFGGGTKLEIKRTGSGSGGGGSGGGGSGGGGSSGGGGSGGGGSGGGGSGSGEVQLQQSGPELVKPGASVKISCKASGYTFTDYYMHWVRQRPGQGLEWIGEIYPGSGNTSYNEKFRGKATLTADKSSSTAYMQLSSLTSEDSAVYFCARGTLDYTMDYWGQGTSVTVSSGSGGGGSGGGGSGGGGSSGGGGSGGGGSGGGGSGSGQDTAIRVFAIPPSFASIFLTKSTKLTCLVTDLTTYDSVTISWTRQNGEAVKTHTSISESHPSATFSAVGEASISEDDWNSGERFTCTVTHTDLPSPLKQTISRPKGGSGGGGSGGGGSGGGGSSGGGGSGGGGSGGGGSGSGRPEVHLLPPPSEELALNELVTLTCLARGFSPKDVLVRWLQGSQELPREKYLTWASRQEPSQGTTTFAVTSILRVAAEDWKKGDTFSCMVGHEALPLAFTQKTIDRGSGGGGSGGGGSGGGGSSGGGGSGGGGSGGGGSGSGEPQVYTLPPSREEMTKNQVSLTCLVKGFYPSDIAVEWESNGQPENNYKTTPPVLDSDGSFFLYSKLTVDKSRWQQGNVFSCSVMHEALHNHYTQKSLSL

These binders were tested against β2-glycoprotein (UniProt P02749) (assay: binding activity followed during purification).
For B1, the binding was “binds”. For B2, the binding was “binds”. B3 was tested, and the binding was “binds”. B4 was tested, and the binding was “binds”.
